Results from article PMC8766458, “Deciphering the mechanism of processive ssDNA digestion by the Dna2-RPA ensemble” (Nature Communications, 2022).
For part of these data: A negative result means that nothing was seen under these conditions. For part of these data: A weaker result is weaker than the reference pair of the same experiment.

Tests used:
[1] = tested on: dna2-D657A (nuclease-dead) + RPA; assay: EMSA; conditions: ternary complex, range given jointly for 3'-overhang and gap; EMSA: 25 mM Tris-HCl pH 7.5, 150 mM KCl, 1 mM DTT, 100 µg/mL BSA, 5 nM DNA, 30 °C 10 min, 4% native PAGE in 0.2x TBE; recombinant protein; protein details: His6, FLAG,none; label: 32P 5'-end
[2] = tested on: dna2-P504S (dna2-1) + Rfa1-NAB; assay: EMSA; conditions: no ternary complex; EMSA: 25 mM Tris-HCl pH 7.5, 150 mM KCl, 1 mM DTT, 100 µg/mL BSA, 5 nM DNA, 30 °C 10 min, 4% native PAGE in 0.2x TBE; recombinant protein; protein details: FLAG, His,N-terminal His6 (TEV removable); label: 32P 5'-end; single-stranded DNA

Sequence | binding result [1] | binding result [2]
TTCATGGCTTAGAGCTTAATTTTTTTTTTTTTTTTTTTTTTTTTTTTTTTTTGATAAGAGGTCATTTGAA / TTCAAATGACCTCTTATCAA / ATTAAGCTCTAAGCCATGAA [dT(30)-gap DNA (S14+S11+S13)] | binds more weakly | –
TTTTTTTTTTTTTTTTTTTT [dT(20)] | – | no binding
TTCATGGCTTAGAGCTTAATTTTTTTTTTTTTTTTTTTTTTTTTTTTTTT / ATTAAGCTCTAAGCCATGAA [3'-overhanging dT(30) DNA (S12+S13)] | binds more weakly | –
